Legend:
[1] = general procedure: Fmoc solid-phase peptide synthesis; Rink Amide resin (10 mg, 2 umol); HATU/DIPEA; HATU/N-methylmorpholine; settings: whole synthesis, scale 2 umol
[2] = general procedure: Fmoc solid-phase peptide synthesis; resin (20 mg, 4 umol); HATU/DIPEA; HATU/N-methylmorpholine; settings: whole synthesis, scale 4 umol

Substance	isolated mass [1] [mg]	isolated mass [2] [mg]
Pentapeptide (12)-Gly-Phe-(Gd-6)-Gly-NH2	0.3	
tetrapeptide Gly-Phe-(Gd-6)-Gly-NH2		0.1
